Data taken from patent US20240148821A1, “PHARMACEUTICAL USE OF CYCLIC PEPTIDE COMPOUND” (CHUGAI SEIYAKU KABUSHIKI KAISHA, priority 2021, published 2024).
Part of at least one peptide drawing is inferred or uncertain, most often the ends. At least one structure is not confirmed: it was looked up by name or label, or the drawing left a doubt. Numbered stars: 1 amine (or outer) side, 2 acyl side, 3 side chain; on linkers, the order of the positions; unused ones are H or OH. Bridge positions count the residues as written; N and C are the ends. Square brackets hold non-standard residues; d marks the D form. Peptide text beside a SMILES is read from it. * marks the point of attachment. hPhe(3-Cl-4-CF3) = N[C@@H](CCc1ccc(C(F)(F)F)c(Cl)c1)C(=O)O; X60 = CC(C)(C)Oc1cc(CC[C@H](N[*:1])C(=O)[*:2])cc(Cl)c1Cl; hPhe(3-F,4-CF3) = N[C@@H](CCc1ccc(C(F)(F)F)c(F)c1)C(=O)O; X8 = CC(C)Oc1cc(CC[C@H](N[*:1])C(=O)[*:2])cc(Cl)c1Cl; X88 = CCCCOc1cc(CC[C@H](N[*:1])C(=O)[*:2])cc(Cl)c1Cl; X91 = N#Cc1cc(CC[C@H](N[*:1])C(=O)[*:2])cc(Cl)c1Cl; X54 = COc1cc(CC[C@H](N[*:1])C(=O)[*:2])cc(Cl)c1Cl; X123 = O=C([C@@H]1C[C@H](n2ccnn2)CN1[*:1])[*:2]; X31 = O=C([C@@H]1C[C@@H](n2ccnn2)CN1[*:1])[*:2]; X85 = O=C([C@H](CCc1ccc2ncccc2c1)N[*:1])[*:2]; NMeAla(cPent) = CN[C@@H](CC1CCCC1)C(=O)O; NMeGly(cPent) = CN[C@H](C(=O)O)C1CCCC1; mXylylene = c1cc(C[*:1])cc(C[*:2])c1; NMeCha = CN[C@@H](CC1CCCCC1)C(=O)O; Hyp = O=C(O)[C@@H]1C[C@@H](O)CN1; NMeChg = CN[C@H](C(=O)O)C1CCCCC1; NMeD = CN[C@@H](CC(=O)O)C(=O)O; NMeL = CN[C@@H](CC(C)C)C(=O)O; NMeV = CN[C@H](C(=O)O)C(C)C; d(β3hA) = C[C@@H](N)CC(=O)O; NMeA = CN[C@@H](C)C(=O)O; Piperidide = C1CCN(*)CC1; X57 = FC(F)Oc1ccc(C*)cc1; Ac5c = NC1(C(=O)O)CCCC1; Aze = O=C(O)[C@@H]1CCN1; Sar = CNCC(=O)O

Tested on: Human pancreatic cancer cell line AsPC-1 (G12D mutation Kras)
Assay: AsPC-1 cell growth inhibition (AsPC-1 CGI)
Format: cell-based
Details: read-out: AsPC-1 cell growth inhibition, 50% growth inhibitory concentration (IC50 value); 96 hours, CellTiter-Glo, values classified in ranges

Row | SMILES | IC50 [nM]
1 | CC[C@H](C)[C@@H]1NC(=O)[C@H](CC(C)C)N(C)C(=O)C[C@@H](C)NC(=O)[C@H](CC(C)C)N(C)C(=O)C2(CCCC2)NC(=O)[C@@H]2C[C@@H](O)CN2C(=O)[C@H](CCc2ccc(C(F)(F)F)c(F)c2)NC(=O)CN(C)C(=O)[C@H](CC2CCCCC2)N(C)C(=O)CN(C)C(=O)CN(C)C1=O [Compound 1483, (3S,9S,18S,21S,25R,28S,34S,36R)-9-(cylohexylmethyl)-3-[2-[3-fluoro-4-(trifluoromethyl)phenyl]ethyl]-36-hydroxy-21,28-diisobutyl-7,10,13,16,22,25,29-heptamethyl-18-[(1S)-1-methylpropyl]spiro[1,4,7,10,13,16,19,22,26,29,32-undecazabicyclo[32.3.0]heptatriacontane-31,1′-cyclopentane]-2,5,8,11,14,17,20,23,27,30,33-undecone] (cyclo([Ac5c][NMeL][d(β3hA)][NMeL]I[Sar][Sar][NMeCha][Sar][hPhe(3-F,4-CF3)][Hyp])) | > 500
2 | CC[C@H](C)[C@@H]1NC(=O)[C@H](C)N(C)C(=O)C[C@@H](C(=O)N2CCCCC2)N(C)C(=O)[C@H](C(C)C)N(C)C(=O)C2(CCCC2)NC(=O)[C@@H]2CCCN2C(=O)[C@H](CCc2cc(Cl)c(Cl)c(OC)c2)NC(=O)CN(C)C(=O)[C@H](CC2CCCCC2)N(C)C(=O)CN(C)C(=O)CN(C)C1=O [Compound 2061] ([NMeA]I[Sar][Sar][NMeCha][Sar][X54]P[Ac5c][NMeV][NMeD]-Piperidide; lactam N-11) | > 500
3 | CC[C@H](C)[C@@H]1NC(=O)[C@H](C)N(C)C(=O)C[C@@H](C(=O)N2CCCCC2)N(C)C(=O)[C@H](C2CCCCC2)N(C)C(=O)C2(CCCC2)NC(=O)[C@@H]2CCCN2C(=O)[C@H](CCc2cc(Cl)c(Cl)c(OC(C)C)c2)NC(=O)CN(C)C(=O)[C@H](CC2CCCCC2)N(C)C(=O)CN(C)C(=O)CN(C)C1=O [Compound 2062] ([NMeA]I[Sar][Sar][NMeCha][Sar][X8]P[Ac5c][NMeChg][NMeD]-Piperidide; lactam N-11) | > 500
4 | CCCCOc1cc(CC[C@@H]2NC(=O)CN(C)C(=O)[C@H](CC3CCCCC3)N(C)C(=O)CN(C)C(=O)CN(C)C(=O)[C@H]([C@@H](C)CC)NC(=O)[C@H](C)N(C)C(=O)C[C@@H](C(=O)N3CCCCC3)N(C)C(=O)[C@H](C3CCCCC3)N(C)C(=O)C3(CCCC3)NC(=O)[C@@H]3CCCN3C2=O)cc(Cl)c1Cl [Compound 2066] ([NMeA]I[Sar][Sar][NMeCha][Sar][X88]P[Ac5c][NMeChg][NMeD]-Piperidide; lactam N-11) | > 500
5 | CC[C@H](C)[C@@H]1NC(=O)[C@H](CC(C)C)N(C)C(=O)C[C@@H](C(=O)N2CCCCC2)N(C)C(=O)[C@H](C2CCCC2)N(C)C(=O)C2(CCCC2)NC(=O)[C@@H]2CCCN2C(=O)[C@H](CCc2ccc3ncccc3c2)NC(=O)CN(C)C(=O)[C@H](CC2CCCCC2)N(C)C(=O)[C@@H]2CCN2C(=O)[C@H](C)N(C)C1=O [Compound 2070] ([NMeL]I[NMeA][Aze][NMeCha][Sar][X85]P[Ac5c][NMeGly(cPent)][NMeD]-Piperidide; lactam N-11) | > 500
6 | CC[C@H](C)[C@@H]1NC(=O)[C@H](C)N(C)C(=O)C[C@@H](C(=O)N2CCCCC2)N(C)C(=O)[C@H](C(C)C)N(C)C(=O)C2(CCCC2)NC(=O)[C@@H]2CCCN2C(=O)[C@H](CCc2cc(Cl)c(Cl)c(C#N)c2)NC(=O)CN(C)C(=O)[C@H](CC2CCCCC2)N(C)C(=O)CN(C)C(=O)CN(C)C1=O [Compound 2071] ([NMeA]I[Sar][Sar][NMeCha][Sar][X91]P[Ac5c][NMeV][NMeD]-Piperidide; lactam N-11) | > 500
7 | CC[C@H](C)[C@@H]1NC(=O)[C@H](C)N(C)C(=O)C[C@@H](C(=O)N2CCCCC2)N(C)C(=O)[C@H](C(C)C)N(C)C(=O)C2(CCCC2)NC(=O)[C@@H]2CCCN2C(=O)[C@H](CCc2cc(Cl)c(Cl)c(OC(C)(C)C)c2)NC(=O)CN(C)C(=O)[C@H](CC2CCCCC2)N(C)C(=O)CN(C)C(=O)CN(C)C1=O [Compound 2073] ([NMeA]I[Sar][Sar][NMeCha][Sar][X60]P[Ac5c][NMeV][NMeD]-Piperidide; lactam N-11) | > 500
8 | CC[C@H](C)[C@@H]1NC(=O)[C@H](C)N(C)C(=O)C[C@@H](C(=O)N2CCCCC2)N(C)C(=O)[C@H](C2CCCCC2)N(C)C(=O)C2(CCCC2)NC(=O)[C@@H]2CCCN2C(=O)[C@H](CCc2cc(Cl)c(Cl)c(C#N)c2)NC(=O)CN(C)C(=O)[C@H](CC2CCCCC2)N(C)C(=O)CN(C)C(=O)CN(C)C1=O [Compound 2075] ([NMeA]I[Sar][Sar][NMeCha][Sar][X91]P[Ac5c][NMeChg][NMeD]-Piperidide; lactam N-11) | > 500
9 | CC[C@H](C)[C@@H]1NC(=O)[C@H](C)N(C)C(=O)C[C@@H](C(=O)N2CCCCC2)N(C)C(=O)[C@H](C(C)C)N(C)C(=O)C2(CCCC2)NC(=O)[C@@H]2CCCN2C(=O)[C@H](CCc2cc(Cl)c(Cl)c(OC(C)C)c2)NC(=O)CN(C)C(=O)[C@H](CC2CCCCC2)N(C)C(=O)CN(C)C(=O)CN(C)C1=O [Compound 2079] ([NMeA]I[Sar][Sar][NMeCha][Sar][X8]P[Ac5c][NMeV][NMeD]-Piperidide; lactam N-11) | > 500
10 | CC[C@H](C)[C@@H]1NC(=O)[C@H](C)N(C)C(=O)C[C@@H](C(=O)N2CCCCC2)N(C)C(=O)[C@H](C2CCCCC2)N(C)C(=O)C2(CCCC2)NC(=O)[C@@H]2CCCN2C(=O)[C@H](CCc2cc(Cl)c(Cl)c(OC)c2)NC(=O)CN(C)C(=O)[C@H](CC2CCCCC2)N(C)C(=O)CN(C)C(=O)CN(C)C1=O [Compound 2081] ([NMeA]I[Sar][Sar][NMeCha][Sar][X54]P[Ac5c][NMeChg][NMeD]-Piperidide; lactam N-11) | > 500
11 | CC[C@H](C)[C@@H]1NC(=O)[C@H](C)N(C)C(=O)C[C@@H](C(=O)N2CCCCC2)N(C)C(=O)[C@H](C2CCCCC2)N(C)C(=O)C2(CCCC2)NC(=O)[C@@H]2CCCN2C(=O)[C@H](CCc2cc(Cl)c(Cl)c(OC(C)(C)C)c2)NC(=O)CN(C)C(=O)[C@H](CC2CCCCC2)N(C)C(=O)CN(C)C(=O)CN(C)C1=O [Compound 2082] ([NMeA]I[Sar][Sar][NMeCha][Sar][X60]P[Ac5c][NMeChg][NMeD]-Piperidide; lactam N-11) | > 500
12 | CCCCOc1cc(CC[C@@H]2NC(=O)CN(C)C(=O)[C@H](CC3CCCCC3)N(C)C(=O)CN(C)C(=O)CN(C)C(=O)[C@H]([C@@H](C)CC)NC(=O)[C@H](C)N(C)C(=O)C[C@@H](C(=O)N3CCCCC3)N(C)C(=O)[C@H](C(C)C)N(C)C(=O)C3(CCCC3)NC(=O)[C@@H]3CCCN3C2=O)cc(Cl)c1Cl [Compound 2083] ([NMeA]I[Sar][Sar][NMeCha][Sar][X88]P[Ac5c][NMeV][NMeD]-Piperidide; lactam N-11) | > 500
13 | CC[C@H](C)[C@@H]1NC(=O)[C@H](CC(C)C)N(C)C(=O)C[C@@H](C(=O)N2CCCCC2)N(C)C(=O)[C@H](C(C)C)N(C)C(=O)C2(CCCC2)NC(=O)[C@@H]2C[C@@H](n3ccnn3)CN2C(=O)[C@H](CCc2ccc(C(F)(F)F)c(Cl)c2)NC(=O)CN(C)C(=O)[C@H](CC2CCCC2)N(C)C(=O)CN(C)C(=O)CN(C)C1=O [Compound 2113, (3S,9S,18S,21S,25S,28S,34S,36R)-3-[2-[3-chloro-4-(trifluoromethyl)phenyl]ethyl]-9-(cyclopentylmethyl)-21-isobutyl-28-isopropyl-7,10,13,16,22,26,29-heptamethyl-18-[(1S)-1-methylpropyl]-25-(piperidine-1-carbonyl)-36-(triazol-1-yl)spiro[1,4,7,10,13,16,19,22,26,29,32-undecazabicyclo[32.3.0]heptatriacontane-31,1-cyclopentane]-2,5,8,11,14,17,20,23,27,30,33-undecone] ([NMeL]I[Sar][Sar][NMeAla(cPent)][Sar][hPhe(3-Cl-4-CF3)][X31][Ac5c][NMeV][NMeD]-Piperidide; lactam N-11) | > 500
14 | CC[C@H](C)[C@@H]1NC(=O)[C@H](CC(C)C)N(C)C(=O)C[C@@H](C(=O)N2CCCCC2)N(C)C(=O)[C@H](C(C)C)N(C)C(=O)C2(CCCC2)NC(=O)[C@@H]2C[C@H](n3ccnn3)CN2C(=O)[C@H](CCc2ccc(C(F)(F)F)c(Cl)c2)NC(=O)CN(C)C(=O)[C@H](CC2CCCC2)N(C)C(=O)CN(C)C(=O)CN(C)C1=O [Compound 2115, (3S,9S,18S,21S,25S,28S,34S,36S)-3-[2-[3-chloro-4-(trifluoromethyl)phenyl]ethyl]-9-(cyclopentylmethyl)-21-isobutyl-28-isopropyl-7,10,13,16,22,26,29-heptamethyl-18-[(1S)-1-methylpropyl]-25-(piperidine-1-carbonyl)-36-(triazol-1-yl)spiro[1,4,7,10,13,16,19,22,26,29,32-undecazabicyclo[32.3.0]heptatriacontane-31,1-cyclopentane]-2,5,8,11,14,17,20,23,27,30,33-undecone] ([NMeL]I[Sar][Sar][NMeAla(cPent)][Sar][hPhe(3-Cl-4-CF3)][X123][Ac5c][NMeV][NMeD]-Piperidide; lactam N-11) | > 500
15 | CC[C@H](C)[C@@H]1NC(=O)[C@H](CC(C)C)N(C)C(=O)C[C@@H](C(=O)N2CCCCC2)N(C)C(=O)[C@H](CC(C)C)N(C)C(=O)C2(CCCC2)NC(=O)[C@@H]2C[C@@H](OCc3cccc(C)c3)CN2C(=O)[C@H](CCc2ccc(C(F)(F)F)c(F)c2)NC(=O)CN(C)C(=O)[C@H](CC2CCCCC2)N(C)C(=O)CN(C)C(=O)CN(C)C1=O [Compound 2125] ([NMeL]I[Sar][Sar][NMeCha][Sar][hPhe(3-F,4-CF3)][Hyp](mXylylene)[Ac5c][NMeL][NMeD]-Piperidide; lactam N-11) | > 500
16 | CC[C@H](C)[C@@H]1NC(=O)[C@H](CC(C)C)N(C)C(=O)C[C@@H](C(=O)N2CCCCC2)N(C)C(=O)[C@H](CC(C)C)N(C)C(=O)C2(CCCC2)NC(=O)[C@@H]2C[C@@H](OCc3ccc(OC(F)F)cc3)CN2C(=O)[C@H](CCc2ccc(C(F)(F)F)c(F)c2)NC(=O)CN(C)C(=O)[C@H](CC2CCCCC2)N(C)C(=O)CN(C)C(=O)CN(C)C1=O [Compound 2128] ([NMeL]I[Sar][Sar][NMeCha][Sar][hPhe(3-F,4-CF3)][Hyp](X57)[Ac5c][NMeL][NMeD]-Piperidide; lactam N-11) | > 500
